Results on 5 compounds are retold here after the supplement of paper PMC4604168 (melanoma cell lines).

The list shows a part of the results. Repeats are few or missing, and single values can be far off.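 Cells were imaged in 1,536-well plates, and nuclei stained with an antibody against cleaved PARP were counted against all DNA-stained nuclei to give the apoptosis fraction. Screening doses were chosen to leave most cells alive, and resting and induced cleaved-PARP levels differ strongly between cell lines.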

For this experiment, the system named is COLO800. The experiment can be described thus: cleaved PARP positive nuclei fraction relative to DMSO control; melanoma cells; higher = more apoptosis. To be noted: library dose: low library concentration; 72 h.
With `CO[C@H]1C[C@@H]2CC[C@@H](C)[C@@](O)(O2)C(=O)C(=O)N2CCCC[C@H]2C(=O)O[C@H]([C@H](C)C[C@@H]2CC[C@@H](OCCO)[C@H](OC)C2)CC(=O)[C@H](C)/C=C(\C)[C@@H](O)[C@@H](OC)C(=O)[C@H](C)C[C@H](C)/C=C/C=C/C=C/1C` [everolimus] + O=C(Nc1cccc(Cl)c1)Nc1ncc(CCNc2ncnc3ccsc23)s1 [SNS314] (first compound 0.02 µM, partner dose 0.0008 µM), the “cleaved PARP positive nuclei fraction” value worked out at 196%.

For the compound `O=C(O)c1ccc2c(c1)nc(Nc1cccc(Cl)c1)c1ccncc12` + NC(=O)Nc1cc(-c2cccc(F)c2)sc1C(=O)N[C@H]1CCCNC1 [AZD7762] (first compound 0.4 µM, partner dose 0.02 µM), the “cleaved PARP positive nuclei fraction” value stood at 158%.

Regarding `Cn1c(=O)n(-c2ccc(C(C)(C)C#N)cc2)c2c3cc(-c4cnc5ccccc5c4)ccc3ncc21` + O=C(O)c1ccc(-c2c[nH]c3ncc(-c4ccccc4)cc23)cc1C1CCCC1 [GSK650394] (first compound 0.004 µM, partner dose 0.16 µM), the “cleaved PARP positive nuclei fraction” value was determined as 194%. Turning to `O=C(O)c1ccc2c(c1)nc(Nc1cccc(Cl)c1)c1ccncc12` + O=C(O)c1ccc(-c2c[nH]c3ncc(-c4ccccc4)cc23)cc1C1CCCC1 [GSK650394] (first compound 0.4 µM, partner dose 0.16 µM), the “cleaved PARP positive nuclei fraction” value stood at 61.6%.

As for `CC(C)C[C@H](NC(=O)[C@H](Cc1ccccc1)NC(=O)c1cnccn1)B(O)O` [Bortezomib] + O=C(CCCCCCC(=O)Nc1ccccc1)NO [vorinostat] (first compound 0.001 µM, partner dose 0.08 µM), the “cleaved PARP positive nuclei fraction” value is 72.7%.
